14 targets from the supplement of paper PMC10849652 can be followed below.

Amino acid sequences for entries named in this document (tags omitted). A change or cut given only in a name is not applied to a line headed by its entry.
EXOC3L2, A0A1C7CYX0, UniProt A0A1C7CYX0, whole entry, looked up: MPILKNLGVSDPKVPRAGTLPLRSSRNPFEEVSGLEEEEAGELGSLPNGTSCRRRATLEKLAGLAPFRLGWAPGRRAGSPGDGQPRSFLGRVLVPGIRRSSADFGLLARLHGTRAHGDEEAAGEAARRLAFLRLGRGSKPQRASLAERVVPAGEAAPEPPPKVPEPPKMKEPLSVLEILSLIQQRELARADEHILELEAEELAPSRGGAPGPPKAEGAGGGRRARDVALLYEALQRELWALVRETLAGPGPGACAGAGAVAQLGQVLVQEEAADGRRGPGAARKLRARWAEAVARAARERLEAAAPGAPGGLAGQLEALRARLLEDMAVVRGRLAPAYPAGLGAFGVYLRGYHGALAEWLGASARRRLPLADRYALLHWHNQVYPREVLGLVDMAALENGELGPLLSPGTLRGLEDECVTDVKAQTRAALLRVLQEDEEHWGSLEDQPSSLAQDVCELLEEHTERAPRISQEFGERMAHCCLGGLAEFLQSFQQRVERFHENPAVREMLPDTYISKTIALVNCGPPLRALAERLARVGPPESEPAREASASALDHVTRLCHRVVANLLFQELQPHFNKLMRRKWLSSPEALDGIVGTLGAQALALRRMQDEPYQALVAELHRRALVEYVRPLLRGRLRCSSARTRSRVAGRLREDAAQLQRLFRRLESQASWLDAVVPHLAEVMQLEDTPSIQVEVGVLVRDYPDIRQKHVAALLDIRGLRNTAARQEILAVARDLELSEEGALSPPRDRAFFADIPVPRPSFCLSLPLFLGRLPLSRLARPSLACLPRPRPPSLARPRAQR
UniProt Q9NVM1: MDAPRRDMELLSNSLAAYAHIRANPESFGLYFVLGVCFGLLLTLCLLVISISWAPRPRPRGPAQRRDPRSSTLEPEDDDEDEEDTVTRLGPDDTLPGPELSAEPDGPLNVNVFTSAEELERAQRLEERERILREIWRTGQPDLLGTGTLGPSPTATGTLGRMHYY
UniProt Q5VUB5: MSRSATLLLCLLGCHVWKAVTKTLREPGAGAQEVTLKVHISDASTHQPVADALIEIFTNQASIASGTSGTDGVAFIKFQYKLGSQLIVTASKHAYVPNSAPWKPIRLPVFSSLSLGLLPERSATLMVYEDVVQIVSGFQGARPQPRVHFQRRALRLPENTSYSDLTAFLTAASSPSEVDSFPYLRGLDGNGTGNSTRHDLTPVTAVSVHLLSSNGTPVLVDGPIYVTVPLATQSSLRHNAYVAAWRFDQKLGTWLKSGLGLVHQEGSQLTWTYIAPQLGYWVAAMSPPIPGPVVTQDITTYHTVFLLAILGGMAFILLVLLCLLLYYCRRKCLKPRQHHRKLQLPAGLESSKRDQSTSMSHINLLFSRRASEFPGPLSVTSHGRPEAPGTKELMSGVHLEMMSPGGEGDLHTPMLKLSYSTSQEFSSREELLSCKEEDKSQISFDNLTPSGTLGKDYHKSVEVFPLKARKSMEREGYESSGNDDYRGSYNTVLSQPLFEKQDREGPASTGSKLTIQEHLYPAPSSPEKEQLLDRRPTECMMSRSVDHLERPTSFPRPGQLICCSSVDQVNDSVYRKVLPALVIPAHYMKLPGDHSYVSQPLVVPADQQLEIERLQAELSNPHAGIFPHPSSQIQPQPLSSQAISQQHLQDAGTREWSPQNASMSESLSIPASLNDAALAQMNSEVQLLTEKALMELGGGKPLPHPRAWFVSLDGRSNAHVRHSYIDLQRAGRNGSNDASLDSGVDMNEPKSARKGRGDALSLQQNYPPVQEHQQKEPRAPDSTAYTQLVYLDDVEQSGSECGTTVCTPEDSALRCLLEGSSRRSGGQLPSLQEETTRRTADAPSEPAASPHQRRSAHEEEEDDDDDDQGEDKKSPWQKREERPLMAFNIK
UniProt Q9NYF3: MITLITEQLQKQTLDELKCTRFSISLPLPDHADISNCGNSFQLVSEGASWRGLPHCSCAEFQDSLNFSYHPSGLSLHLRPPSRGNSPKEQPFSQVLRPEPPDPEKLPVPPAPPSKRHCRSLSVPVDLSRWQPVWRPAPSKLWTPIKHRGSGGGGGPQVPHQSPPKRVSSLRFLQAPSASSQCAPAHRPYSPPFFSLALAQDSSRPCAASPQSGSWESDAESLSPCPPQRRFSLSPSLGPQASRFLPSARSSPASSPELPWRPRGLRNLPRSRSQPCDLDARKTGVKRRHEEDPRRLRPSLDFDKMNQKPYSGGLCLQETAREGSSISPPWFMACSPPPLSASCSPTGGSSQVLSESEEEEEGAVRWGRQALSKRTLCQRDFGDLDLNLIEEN
UniProt P16930: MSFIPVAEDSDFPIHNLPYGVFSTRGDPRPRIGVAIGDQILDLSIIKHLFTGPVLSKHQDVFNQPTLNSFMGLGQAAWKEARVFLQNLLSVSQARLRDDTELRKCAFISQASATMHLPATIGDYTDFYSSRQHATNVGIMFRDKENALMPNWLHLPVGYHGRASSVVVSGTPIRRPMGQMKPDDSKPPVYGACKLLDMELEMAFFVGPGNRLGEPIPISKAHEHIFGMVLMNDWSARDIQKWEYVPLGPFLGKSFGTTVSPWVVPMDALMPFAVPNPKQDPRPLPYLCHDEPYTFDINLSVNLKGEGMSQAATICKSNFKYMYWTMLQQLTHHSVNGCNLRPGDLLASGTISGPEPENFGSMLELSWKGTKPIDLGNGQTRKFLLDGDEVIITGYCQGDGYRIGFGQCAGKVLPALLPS
UniProt B1AK53: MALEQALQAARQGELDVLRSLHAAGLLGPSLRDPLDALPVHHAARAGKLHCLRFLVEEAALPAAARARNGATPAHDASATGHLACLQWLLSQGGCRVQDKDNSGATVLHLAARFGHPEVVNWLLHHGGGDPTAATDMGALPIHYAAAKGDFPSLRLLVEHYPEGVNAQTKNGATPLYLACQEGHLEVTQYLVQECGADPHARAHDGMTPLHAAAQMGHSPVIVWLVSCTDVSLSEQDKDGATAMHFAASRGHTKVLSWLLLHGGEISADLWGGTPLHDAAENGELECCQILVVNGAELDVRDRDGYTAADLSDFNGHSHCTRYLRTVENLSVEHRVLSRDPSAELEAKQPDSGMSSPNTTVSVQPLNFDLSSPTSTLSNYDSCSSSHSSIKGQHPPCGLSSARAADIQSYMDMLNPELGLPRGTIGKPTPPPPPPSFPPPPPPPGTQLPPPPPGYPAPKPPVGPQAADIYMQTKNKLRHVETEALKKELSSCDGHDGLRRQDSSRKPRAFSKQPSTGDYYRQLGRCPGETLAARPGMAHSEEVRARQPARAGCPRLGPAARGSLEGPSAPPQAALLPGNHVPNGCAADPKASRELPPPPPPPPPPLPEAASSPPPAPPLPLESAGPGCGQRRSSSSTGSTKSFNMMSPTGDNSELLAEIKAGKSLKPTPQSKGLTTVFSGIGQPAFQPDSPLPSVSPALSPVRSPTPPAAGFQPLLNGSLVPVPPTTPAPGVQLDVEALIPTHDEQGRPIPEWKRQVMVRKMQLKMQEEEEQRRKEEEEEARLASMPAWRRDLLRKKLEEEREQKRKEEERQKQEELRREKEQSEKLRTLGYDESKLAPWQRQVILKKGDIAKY
UniProt Q8IXS8: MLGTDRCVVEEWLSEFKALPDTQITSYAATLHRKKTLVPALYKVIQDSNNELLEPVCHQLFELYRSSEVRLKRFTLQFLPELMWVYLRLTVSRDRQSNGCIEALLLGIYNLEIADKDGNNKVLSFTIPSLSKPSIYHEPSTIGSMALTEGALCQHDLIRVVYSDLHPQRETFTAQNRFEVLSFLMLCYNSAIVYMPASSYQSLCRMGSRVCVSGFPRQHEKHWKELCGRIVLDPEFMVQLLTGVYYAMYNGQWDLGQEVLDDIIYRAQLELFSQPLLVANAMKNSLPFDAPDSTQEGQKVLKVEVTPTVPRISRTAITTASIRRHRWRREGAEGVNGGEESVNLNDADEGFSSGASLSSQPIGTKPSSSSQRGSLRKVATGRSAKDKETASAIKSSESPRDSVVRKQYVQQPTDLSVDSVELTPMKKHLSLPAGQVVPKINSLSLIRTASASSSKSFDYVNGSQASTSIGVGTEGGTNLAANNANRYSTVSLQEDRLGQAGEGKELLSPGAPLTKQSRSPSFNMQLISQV
UniProt P41212: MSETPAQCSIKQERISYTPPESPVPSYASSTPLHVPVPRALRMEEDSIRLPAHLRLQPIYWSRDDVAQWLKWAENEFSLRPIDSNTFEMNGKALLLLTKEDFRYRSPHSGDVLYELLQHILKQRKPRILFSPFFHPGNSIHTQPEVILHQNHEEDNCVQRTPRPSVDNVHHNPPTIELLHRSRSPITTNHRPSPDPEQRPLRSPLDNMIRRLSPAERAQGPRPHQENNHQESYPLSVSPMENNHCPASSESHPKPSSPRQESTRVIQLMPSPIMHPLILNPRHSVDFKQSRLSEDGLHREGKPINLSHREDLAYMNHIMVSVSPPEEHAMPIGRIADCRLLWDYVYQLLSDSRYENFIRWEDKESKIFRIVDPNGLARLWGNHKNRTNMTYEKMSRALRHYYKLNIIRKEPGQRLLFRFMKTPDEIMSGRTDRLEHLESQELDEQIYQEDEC
UniProt Q6PEV8: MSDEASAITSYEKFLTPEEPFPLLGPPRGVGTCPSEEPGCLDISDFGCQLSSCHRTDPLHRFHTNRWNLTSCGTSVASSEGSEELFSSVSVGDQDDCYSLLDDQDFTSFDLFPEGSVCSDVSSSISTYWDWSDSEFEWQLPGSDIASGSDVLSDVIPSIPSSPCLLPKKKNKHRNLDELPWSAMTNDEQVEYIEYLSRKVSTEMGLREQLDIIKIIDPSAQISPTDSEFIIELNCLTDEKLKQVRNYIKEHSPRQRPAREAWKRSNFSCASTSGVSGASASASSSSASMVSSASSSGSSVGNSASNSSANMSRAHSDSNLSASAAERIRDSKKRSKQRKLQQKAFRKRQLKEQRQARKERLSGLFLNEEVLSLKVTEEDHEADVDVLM
UniProt Q8IWE2: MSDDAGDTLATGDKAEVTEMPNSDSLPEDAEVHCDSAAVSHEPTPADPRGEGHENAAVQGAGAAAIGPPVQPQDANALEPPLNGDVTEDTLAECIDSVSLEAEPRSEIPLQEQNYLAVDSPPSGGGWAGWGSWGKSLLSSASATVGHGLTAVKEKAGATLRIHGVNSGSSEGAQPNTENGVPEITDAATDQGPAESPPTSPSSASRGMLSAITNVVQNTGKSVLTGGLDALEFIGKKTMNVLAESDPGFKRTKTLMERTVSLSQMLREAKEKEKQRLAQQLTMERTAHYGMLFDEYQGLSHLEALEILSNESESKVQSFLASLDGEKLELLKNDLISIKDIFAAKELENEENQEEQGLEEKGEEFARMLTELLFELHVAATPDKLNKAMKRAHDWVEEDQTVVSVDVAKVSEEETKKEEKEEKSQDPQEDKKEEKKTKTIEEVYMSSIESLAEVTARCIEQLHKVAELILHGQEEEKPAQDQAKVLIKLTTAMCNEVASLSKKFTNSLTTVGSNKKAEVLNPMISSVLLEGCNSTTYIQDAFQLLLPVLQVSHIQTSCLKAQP
UniProt O95718: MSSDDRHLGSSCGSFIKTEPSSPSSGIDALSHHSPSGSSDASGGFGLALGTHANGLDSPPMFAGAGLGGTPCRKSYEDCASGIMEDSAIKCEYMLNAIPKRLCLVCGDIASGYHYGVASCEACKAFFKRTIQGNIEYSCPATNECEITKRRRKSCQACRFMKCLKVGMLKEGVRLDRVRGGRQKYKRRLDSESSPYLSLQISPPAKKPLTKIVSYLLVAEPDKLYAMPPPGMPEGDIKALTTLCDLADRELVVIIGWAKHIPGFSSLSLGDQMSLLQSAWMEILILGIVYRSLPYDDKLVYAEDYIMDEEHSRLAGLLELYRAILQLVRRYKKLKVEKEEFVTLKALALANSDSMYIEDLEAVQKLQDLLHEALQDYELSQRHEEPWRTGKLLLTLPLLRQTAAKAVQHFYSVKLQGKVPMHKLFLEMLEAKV
UniProt Q56NI9: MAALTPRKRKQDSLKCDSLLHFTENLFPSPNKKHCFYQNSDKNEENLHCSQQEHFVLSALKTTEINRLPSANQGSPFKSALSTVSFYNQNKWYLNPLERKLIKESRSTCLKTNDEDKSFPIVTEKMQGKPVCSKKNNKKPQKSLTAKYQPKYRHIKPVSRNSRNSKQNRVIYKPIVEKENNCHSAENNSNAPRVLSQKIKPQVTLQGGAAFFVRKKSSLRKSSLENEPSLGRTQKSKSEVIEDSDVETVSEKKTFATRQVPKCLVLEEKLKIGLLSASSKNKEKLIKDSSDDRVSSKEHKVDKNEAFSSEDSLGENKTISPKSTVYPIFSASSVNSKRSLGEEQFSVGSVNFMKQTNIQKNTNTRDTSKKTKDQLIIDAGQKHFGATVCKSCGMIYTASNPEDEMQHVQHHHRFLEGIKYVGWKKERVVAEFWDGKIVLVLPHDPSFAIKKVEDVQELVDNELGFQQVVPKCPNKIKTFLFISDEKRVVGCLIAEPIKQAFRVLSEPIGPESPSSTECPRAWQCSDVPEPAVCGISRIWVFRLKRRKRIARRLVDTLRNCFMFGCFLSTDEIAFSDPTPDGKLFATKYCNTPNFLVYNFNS

Experiment in all cases: log2 fold change, soluble protein after heating vs DMSO (PISA); higher = thermal stabilisation; K562 lysate, 10 uM; active = over 0.2 and 3.5 SD of the protein, either way, in both replicates (recomputed)
Compound in assay [1]: O=C(CCCCCCC(=O)Nc1ccccc1)NO [vorinostat]
The procedure, abridged: (§1)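 K562 pellets were dounce-homogenised in PBS pH 7.4 containing 1 mM MgCl2, and the crude extract, at 1 mg/mL protein, was exposed to 10 μM compound for 30 min. Aliquots were heated for 3 min across 48°C-58°C, pooled, brought to 0.5% NP-40 at 4°C and spun at 21,000xg for 90 min, with the supernatant taken as soluble protein. TMTpro 16plex LC-MS/MS with equalised channel sums quantified that protein. Values are log-two fold changes in thermal stability relative to solvent controls, taken from duplicates.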

Compound in assay [2]: O=C(O)c1ccc2c(c1)nc(Nc1cccc(Cl)c1)c1ccncc12 [silmitasertib]
The procedure, abridged:
as §1

Compound in assay [3]: O=C1NC(=O)C(c2cnc3ccccn23)=C1c1cn2c3c(cc(F)cc13)CN(C(=O)N1CCCCC1)CC2
A digest of the protocol: as §1

Compound in assay [4]: c1cn2cc(-c3ccc4cn[nH]c4c3)nc(Nc3ccc(N4CCOCC4)cc3)c2n1 [entospletinib]
A digest of the protocol:
as §1

Compound in assay [5]: NCC(=O)Nc1ccc(-n2nc(C(F)(F)F)cc2-c2ccc3c(ccc4ccccc43)c2)cc1
The procedure, abridged:
as §1

The list shows a part of the results.

Take EXOC3L2, A0A1C7CYX0: the log2 fold change in assay [1] was inactive: 0.013; in assay [2] it was inactive: -0.061; in assay [3] it was inactive: 0.007; in assay [4], inactive: -0.098.

For EVA1B (UniProt Q9NVM1), the log2 fold change in assay [1] was inactive: 0.141; in assay [2], inactive: -0.002; in assay [3], inactive: -0.041.

As to FAM171A1 (UniProt Q5VUB5), the log2 fold change in assay [1] is inactive: -0.058; in assay [2] it was inactive: -0.01.

Regarding FAM53C (UniProt Q9NYF3), the log2 fold change in assay [1] is inactive: -0.183; in assay [2] it was inactive: 0.113; in assay [3] it was inactive: 0.023; in assay [4], inactive: 0.03.

Consider FAH isoform 2 (UniProt P16930), for which the log2 fold change was inactive: 0.075 in assay [5], inactive: -0.056 in assay [3] and inactive: 0.032 in assay [4].

As to ESPN (UniProt B1AK53), the log2 fold change in assay [4] is inactive: 0.023.

As to FAM126B (UniProt Q8IXS8), the log2 fold change was inactive: -0.097 in assay [5], inactive: -0.336 in assay [1], inactive: -0.064 in assay [2] and inactive: 0.092 in assay [4].

Consider ETV6 (UniProt P41212), for which the results for the log2 fold change in assay [5], in assay [3] and in assay [4] were inactive: 0.085, inactive: 0.042 and inactive: 0.077, respectively.

Turning to FAM199X (UniProt Q6PEV8), the log2 fold change in assay [3] was inactive: 0.133.

FAM114A1 (UniProt Q8IWE2): the log2 fold change in assay [5] is inactive: 0.228; in assay [1], inactive: 0.25; in assay [2] it was inactive: -0.135; in assay [4] it was inactive: -0.063.

Take ESRRB isoform 1 (UniProt O95718): the log2 fold change in assay [2] was inactive: 0.087.

On to ESCO2 (UniProt Q56NI9), for which the log2 fold change is inactive: -0.43 in assay [1], inactive: -0.107 in assay [2], inactive: -0.133 in assay [3] and inactive: 0.153 in assay [4].

As to EURL (UniProt Q9NYK6), the figures for the log2 fold change in assay [1] and in assay [2] were inactive: 0.032 and inactive: 0.049, respectively.

FAM13A (UniProt O94988): in assay [3], the log2 fold change is inactive: 0.074.
